# Screen size: about 340,000 compounds; about 170 (0.05%) were called active. Inconclusive results, whose numbers are uncertain, are shown with a selection of clear calls. Calls come from the whole dose curve; as a rule, active = well fitted inhibition curve with a large enough effect in the signal ratio, with a control signal flat (not every such curve was filed as active); inconclusive = small, poorly fitted or top-dose-only effect, or effect the other way, or a change in a side signal; inactive = flat fitted curve, though single readings scatter; the % refers to the signal ratio. Potencies beside an inconclusive call are fits to weak or partial responses and may not hold up.
# Experiment: qHTS Assay to Find Inhibitors of Chronic Active B-Cell Receptor Signaling;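 for activity change, negative = inhibition: plate controls were basal doxycycline-induced cells for no effect and cells given 10 µM MG132 for full effect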
# Settings: ABC-DLBCL IkBa-CBG/CBR reporter, luminescence ratio (green luciferase fused to IkBa over red control in TMD8 lymphoma cells), 4 h; activity change, negative = inhibition: at 46.1 µM (top of the series)
# How it was run: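 Compounds up to 46 uM were incubated four hours with TMD8 cells whose green CBG68 luciferase is fused to IkappaBalpha; red CBR luminescence normalised the signal, and concentration-effect curves were fitted to fusion, red and ratio data.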
# Potency is the fitted concentration of half-maximal effect.
Structure (SMILES),Potency,"activity change, negative = inhibition"
CCOc1ccc(OCC(=O)c2c(O)c3ccccc3oc2=O)cc1,"inconclusive: 10 µM [falling, partial curve]",–
O=C1c2ccccc2C(Nc2cccnc2)N1Cc1ccccc1Cl (configuration not stated),–,inconclusive: 0.812%
CCCC(C)NC(=O)c1ccc2[nH]c3c(c2c1)CC(C)CC3 (configuration not stated),"inconclusive: 0.501 µM [rising, full curve, poor fit]",–
CC1(C)C(=O)Nc2ccccc2N1C(=O)COC(=O)CSc1ccc(F)cc1,–,inconclusive: 6.76%
CCC(=O)NC(C)C(c1cccs1)N1CCN(c2ccccc2)CC1 (configuration not stated),"inconclusive: 1.16 µM [rising, full curve, poor fit]",–
Nc1ncnc2c1ncn2[C@@H]1O[C@H](CNCC#Cc2ccccc2)[C@@H](O)[C@H]1O,"inconclusive: 3.66 µM [falling, partial curve, poor fit]",–
COc1cc(/C=C2\SC(=O)NC2=O)ccc1OCC(=O)N1CCOCC1,–,inconclusive: 4.35%
COc1ccc(C(=O)c2sc(Nc3ccc(NC(C)=O)cc3)nc2C)cc1,–,inconclusive: -18.8%
CCOC(=O)C1CCN(S(=O)(=O)c2ccc3c(c2)CC(=O)N3C)CC1,–,inconclusive: 4.71%
CSc1cccc(NC(=O)/C=C/c2ccco2)c1,–,inconclusive: 1.92%
Cc1ccc(Nc2nc(-c3ccc(S(=O)(=O)N4CCCC4)cc3)cs2)cc1C,"inconclusive: 11.2 µM [falling, partial curve]",–
CCC(C(=O)NC(C)c1ccccc1)C(=O)NC(C)c1ccccc1 (configuration not stated),–,inactive: 0.377%
CCOC(=O)C#CC(CCc1ccccc1)OS(N)(=O)=O (configuration not stated),–,inconclusive: -26%
Cc1ccc(S(=O)(=O)N2CCN(C(=O)/C=C/c3ccco3)CC2)cc1,–,inactive: -0.8%
O=C(NCCCCCCNC(=O)N1CCCCCC1)N1CCCCCC1,"inconclusive: 6.51 µM [rising, partial curve, poor fit]",–
COC(=O)CSCC(=O)Nc1nnc(-c2cccc(C)c2)s1,"inconclusive: 35.5 µM [rising, single point]",–
O=C(Nc1cccc(C(F)(F)F)c1)c1ccc(F)c(S(=O)(=O)N2CCc3ccccc3C2)c1,–,inactive: 10.6%
Cc1cccc(C(=O)Nc2nnc(S(=O)(=O)N3CCCCCC3)s2)c1,"inconclusive: 8.91 µM [rising, partial curve, poor fit]",–
CCN(CC)C(=O)c1sc(NC(=O)c2cccs2)c(C#N)c1C,–,inconclusive: 13%
Cc1cccc(CSC2=CS(=O)(=O)c3ccccc3N2)c1,–,inconclusive: -4.08%
COc1ccc(Nc2nc(N3CCN(S(=O)(=O)N(C)C)CC3)nc3ccccc23)cc1,–,inconclusive: 1.83%
CC(O)CNCc1cccc2ccccc12 (configuration not stated),–,inconclusive: 11.8%
O=[N+]([O-])c1cc(C(F)(F)F)ccc1-n1nnc2ccccc21,–,inconclusive: -0.58%
O=C(NCc1ccco1)c1cccn2c(=O)c3c4c(sc3nc12)CCCC4,–,inconclusive: 6.96%
O=C(O)CC/C(=N/Nc1ccc([N+](=O)[O-])cc1)C(=O)O,–,inconclusive: 12.9%
COc1ccc(N2C3=C(CC4=C2CC(C)(C)CC4=O)C(=O)CC(C)(C)C3)cc1,"inconclusive: 20 µM [activator, partial curve, poor fit]",–

Structure (SMILES),Potency,"activity change, negative = inhibition"
COc1ccc(C(c2nnnn2C2CCCCC2)N2CCN(C)CC2)c(OC)c1 (configuration not stated),–,inconclusive: -24.9%
CC(c1ccccc1)N(CCC(c1ccccc1)C1CCOC(C)(C)C1)C(=O)c1ccco1 (configuration not stated),–,inconclusive: 23.5%
N#Cc1c(-c2ccccc2)cc(-c2cccs2)nc1SCC(=O)O,–,inconclusive: -2.17%
COc1ccccc1OCc1nnc(SCC(=O)Nc2ccc(C)cc2)n1C,–,inconclusive: 4.75%
COc1ccc2ccc(OCC(=O)N3c4ccccc4NC(=O)CC3C)cc2c1 (configuration not stated),–,inconclusive: 3.64%
CCn1nnnc1SCC(=O)Nc1ccc2c(c1)OCCO2,–,inactive: -10.3%
Cc1sc2nc(C3CC3)nc(NCCNS(=O)(=O)c3ccccc3)c2c1C,–,inconclusive: 13.7%
COC(=O)c1c(NC(=O)CC2Nc3ccccc3NC2=O)sc(C)c1C (configuration not stated),"inconclusive: 3.98 µM [falling, partial curve, poor fit]",–
CCOC(=O)c1c(NC(=O)CSc2nc3c(c(=O)n(C)c(=O)n3C)n2C(C)C)sc(C)c1C,–,inconclusive: 0.665%
Cc1ccc(NC(=O)CCN2CCCCC2)cc1,"inconclusive: 12.6 µM [falling, partial curve, poor fit]",–
O=C(N/N=C/c1cc2c(cc1Br)OCO2)c1ccccn1,"inconclusive: 11.2 µM [falling, partial curve]",–
CC(O)[C@@]1(O)CC[C@H]2[C@@H]3CC[C@H]4C[C@@H](O)CC[C@]4(C)C3=CC[C@@]21C (some centres not stated),–,inactive: -16.3%
Cc1cc(C)cc(Oc2ccccc2/C=N\O)c1,–,inconclusive: 13.7%
Cc1cc(C)c(NC(=O)C2CCCN2CCOC(=O)c2cccc([N+](=O)[O-])c2)c(C)c1 (configuration not stated),–,inconclusive: -1.84%
CC[n+]1c(/C=C2/C=C(C)CC(C)(C)C2)sc2ccc(OC)cc21,"inconclusive: 11.2 µM [falling, partial curve]",–
Cc1ccccc1OCC(=O)Nc1c2c(nn1C(C)(C)C)CS(=O)(=O)C2,–,inactive: -0.2%
Cc1ccccc1-c1nn(-c2ccc(F)cc2F)cc1CNCCN(C)C,"inconclusive: 10 µM [falling, partial curve, poor fit]",–
OC[C@@H]1[C@@H](c2ccccc2)C(c2cccc(Cl)c2)=NN1c1ccccc1,–,inconclusive: -5.61%
Cc1cc(NC(=O)CC2CCCC2)ccc1Br,–,inconclusive: 7.71%
Cc1nn(-c2ccccc2)c(C)c1CNC(=O)c1ccc(S(=O)(=O)NCc2ccco2)cc1,–,inconclusive: -0.0037%
O=[N+]([O-])c1ccccc1OCCN1CCOCC1,–,inactive: 4.42%
COC(=O)c1ccc(C2/C(=C(/O)c3ccc(OC)cc3)C(=O)C(=O)N2Cc2ccco2)cc1 (configuration not stated),"inconclusive: 22.4 µM [falling, partial curve]",–
NC(=O)c1c(NC(=O)c2ccccc2)sc2c1CCN(Cc1ccccc1)C2,–,inactive: 20.3%
CC(=O)N=C1SC2CS(=O)(=O)CC2N1Cc1ccc(C)cc1 (configuration not stated),–,inconclusive: 6.87%
Cc1ccc(C(=O)NCN2CCN(c3ccc(F)cc3)CC2)cc1,–,inconclusive: 2.81%
COc1ccc(NC(=S)N2CCCC2)cc1,–,inactive: -0.924%

Structure (SMILES),Potency,"activity change, negative = inhibition"
Cc1cc(NC(=O)CSc2ccc(Cl)cc2)no1,"inconclusive: 29.1 µM [rising, partial curve, poor fit]",–
CCOC(=O)c1cccc(N2C(=O)C3C4C=CC(CC4)C3C2=O)c1 (configuration not stated),–,inconclusive: 1%
O=C(O)c1ccccc1C(=O)Nc1nc(-c2ccccc2)cs1,"inconclusive: 20 µM [falling, single point]",–
CCOC(=O)N1CCN(C(=O)C2CCN(C(=O)c3ccc([N+](=O)[O-])cc3)CC2)CC1,–,inconclusive: 1.33%
COc1cccc(/C=N/NC(=O)c2ccc(=O)[nH]n2)c1O,"inconclusive: 0.562 µM [falling, full curve, poor fit]",–
CC(C)CNC(=S)N(CCCN(C)C)Cc1cc2cc3c(cc2[nH]c1=O)OCCO3,"inconclusive: 14.1 µM [falling, partial curve, poor fit]",–
C#CCOCCOCCOCCNc1nc(N2CCN(C(=O)CCCCCCCCCCNC(=O)Cn3cc(CCCCCN)nn3)CC2)nc(N2CCN(C(=O)CCCCCCCCCCNC(=O)Cn3cc(CCCCCN)nn3)CC2)n1,–,inconclusive: 16%
COc1cccc2sc(N(Cc3cccnc3)C(=O)c3ccc(S(=O)(=O)N(C)C)cc3)nc12,–,inactive: 7.77%
Cn1cccc1Cc1nnc(SCC(=O)NCc2ccccc2)n1-c1ccc(F)cc1,"inconclusive: 3.26 µM [rising, single point]",–
O=C(Nc1cccc2cccnc12)c1cccnc1,"inconclusive: 20.6 µM [falling, partial curve, poor fit]",–
Cc1nc2ccccc2c2c1C(=O)N(C)C2=O,–,inconclusive: 3.04%
Nc1cc(S(=O)(=O)Nc2cc(Cl)ccc2Cl)ccc1N1CCCC1,–,inactive: 13.5%
Cc1nccc(-c2ccc(-n3cnc4ccccc43)cc2)n1,–,inconclusive: -11.2%
Cc1nc2c(C(=O)NCCC(C)C)cnn2c(C)c1Cc1c(F)cccc1Cl,–,inactive: 4.49%
C#CCOCCOCCOCCNc1nc(N2CCN(C(=O)CCCCCCCCCCNC(=O)Cn3cc(C[C@@H](C)O)nn3)CC2)nc(N2CCN(C(=O)CCCCCCCCCCNC(=O)[C@@H](CCC(=O)O)n3cc(CCCCCN)nn3)CC2)n1,–,inconclusive: 1.85%
Cc1ccccc1-c1nnc(SC(C)C(=O)NC2CCCC2)o1 (configuration not stated),–,inconclusive: 8.97%
COc1ccc(CCNC(=O)C/C(C)=N/NC(=O)C23CC4CC(CC(C4)C2)C3)cc1OC,–,inactive: -0.608%
CCC/C=C1/CCCOC(C(=O)NCc2ccc(C)o2)(C(F)(F)F)C1 (configuration not stated),–,inconclusive: 0.118%
COc1ccc2ccccc2c1CN1CCN(C)CC1,–,inactive: -1.28%
FC(F)(F)c1cccc(Cc2noc(CN3CCCC(CN4CCCC4)C3)n2)c1 (configuration not stated),"inconclusive: 1.26 µM [falling, full curve, poor fit]",–
COc1ccccc1NS(=O)(=O)c1ccc(NC(=O)N2CCCCC2)cc1,–,inactive: -8.1%
Cc1cccc(Nc2nc(-c3ccccc3)cs2)n1,–,inconclusive: 475%
CCOC(=O)N1CCC(NC(=O)CCC(=O)N2CCOc3ccc(Cl)cc32)CC1,–,inactive: 1.75%
CN(C(=O)COC(=O)CNC(=O)CNC(=O)c1ccc(Cl)cc1Cl)c1ccccc1,–,inconclusive: 13.6%
COc1ccc2c(=O)cc(-c3ccccc3F)oc2c1,–,inconclusive: 9.8%

# — PubChem BioAssay AID493014 (National Center for Advancing Translational Sciences (NCATS), 2011)
